Earlier results, collected in patent US20040248765A1, “Tumour targeting prodrugs activated by metallo matrixproteinases” (priority 2001, published 2004).

Conditions: man; cited from earlier work

COc1cccc2c1C(=O)c1c(O)c3c(c(O)c1C2=O)C[C@@](O)(C(=O)CO)C[C@@H]3O[C@H]1C[C@H](N)[C@H](O)[C@H](C)O1 [doxorubicin]
maximum tolerated dose: 1 to 2 mg/kg
